Test results published in PubChem BioAssay AID1347076 (National Center for Advancing Translational Sciences (NCATS), 2019).
The whole screen tested about 400,000 compounds, of which about 13,000 (3.2%) were called active. This list was built around the results that the source calls inconclusive (neither active nor inactive); the mix of calls is not that of the screen. The call rests on the fitted dose curve; in most records, active means well fitted cell-killing curve with a large enough effect; inconclusive means small, poorly fitted or top-dose-only effect, or effect the other way; inactive means flat fitted curve, though single readings scatter. Potencies beside an inconclusive call are fits to weak or partial responses and may not hold up.

test: qHTS assay for MDR1-selective chemotherapeutics: Primary screen using the drug-selected MDR subline cells KB-V1; settings: KB-V1 MDR cells viability, CellTiter-Glo, 72 h; activity change, negative = cytotoxicity: at 46.1 µM (top of the series); further: nearly all actives have a fitted effect of over 60% in size
How it was run: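 KB-V1 cells (P-gp-expressing MDR subline of KB-3-1) in phenol-red-free DMEM with 10% FBS were exposed to library compounds over a concentration series for 72 h at 37 degrees C. Viability read by CellTiter-Glo luminescence; concentration-effect curves fitted after normalization.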
On the % scale 0 is the no-effect control and ±100 the full control effect; potency means the concentration at half of the fitted maximal effect.

SMILES | Potency | activity change, negative = cytotoxicity
Cc1cc(NC(=O)c2ccccc2)sc1C | inconclusive: 18.4 µM [cytotoxic, partial curve, poor fit] | 
Cc1cc(C)c2c(c1)/C(=C/C(=O)c1ccc(Br)s1)C(=O)N2 | active: 23.1 µM | 
C[C@@H]1CN([C@@H](C)CO)C(=O)CCCn2nncc2CO[C@H]1CN(C)Cc1cccnc1 | inactive | 
O=C(CCC(=O)CCN1CCCCC1)CCN1CCCCC1 | inactive | 
O=C1CN(S(=O)(=O)c2ccc(F)cc2)CCN1 | inconclusive: 8.2 µM [rising, partial curve] | 
O=C(Nc1ccc(Cl)cc1)c1ccc(-n2cccn2)c([N+](=O)[O-])c1 | active: 14.6 µM | 
COc1ccccc1N1CCN(C(=O)CSc2ncnc3scc(-c4ccccc4)c23)CC1 | inconclusive: 23.1 µM [cytotoxic, partial curve, poor fit] | 
COc1ccc(-n2c(=O)c3c4c(sc3n(C)c2=O)CN(C(C)=O)CC4)cc1 | inactive | 
CCCn1c(N)c(C(=O)COC(=O)CCS(=O)(=O)c2ccc(C)cc2)c(=O)[nH]c1=O | inactive | 
COC(=O)C(NC(=O)c1ccccc1C)(Nc1ncc(S(=O)(=O)c2ccc([N+](=O)[O-])cc2)s1)C(F)(F)F (stereo not given) | inconclusive: 20.6 µM [cytotoxic, single point] | 
CCN(CC)c1ccc(/C=C/c2nccc3ccccc23)cc1 | inactive | 
O=C1CN(C(=O)COC(=O)CNC(=O)c2ccc(Br)o2)c2ccccc2N1 | inconclusive: 13 µM [rising, partial curve] | 
COc1cc2c(cc1OC)n(CC(=O)NC1CCCCCC1)n1c(C)cc(=O)nc21 | inconclusive: 3.66 µM [cytotoxic, full curve, poor fit] | 
COc1ccccc1C(=O)Nc1nnc2n1CCS2 |  | inconclusive: 40.9%
Cc1cccnc1NC(=O)c1cccc(S(=O)(=O)N2CCN(c3ccc(F)cc3)CC2)c1 | inconclusive: 13 µM [cytotoxic, partial curve] | 
O=C(Nc1ccc(NC(=O)C2CC2)nc1)c1cccnc1 | inconclusive: 10.3 µM [rising, partial curve, poor fit] | 
CN(C(=O)Cn1cccc1C1=NC(c2ccccc2)CO1)c1ccccc1 (stereo not given) | inconclusive: 29.1 µM [cytotoxic, single point] | 
Cc1ccc(NC(=O)C2C3C=CC4(O3)C2C(=O)N(CCCN2CCCC2)C4C(=O)NC2CCCCC2)cc1Cl (stereo not given) |  | inconclusive: 30.9%
COc1ccc(NC(=O)Cc2ccc(C)c(C)c2)cc1S(=O)(=O)N1CCCCC1 | active: 9.2 µM | 
CCn1c(SCC(=O)N(C)CCC#N)nc2cc(S(=O)(=O)N3CCOCC3)ccc21 | inactive | 

Looked up by compound from the entries so far:
SMILES | Potency | activity change, negative = cytotoxicity
O=C(CCC(=O)CCN1CCCCC1)CCN1CCCCC1 | inactive | 
O=C1CN(S(=O)(=O)c2ccc(F)cc2)CCN1 | inconclusive: 8.2 µM [rising, partial curve] | 
